Test results: patent publication US12454675B2, “Method of increasing protein yield in mammalian cells in serum-free culture medium” (AGENCY FOR SCIENCE, TECHNOLOGY AND RESEARCH, priority 2016, dated 2025)

Tested on: SH87 cells
Assay: Quantification of intracellular maltose by LC-MS
Assay type: cell-based, Chinese Hamster

OC[C@H]1O[C@H](O[C@H]2[C@H](O)[C@@H](O)[C@H](O)O[C@@H]2CO)[C@H](O)[C@@H](O)[C@@H]1O [maltose]
intracellular maltose concentration, times lower than that in the culture medium (SH87, 4 g/l glucose + 3 g/l maltose, over 5 days): approximately 100 times | intracellular maltose detection (SH87, 1 day after seeding into maltose-supplemented medium): detected
